Assay results: paper PMC12254316
These are yes or no findings as the source states them, for the method shown. Binding seen in cells or lysates may run through a third protein. Some binding calls cover weakened binding; strength is not graded here. For some assays here: Tags and fused reporters may be left off the sequences shown.

Protein sequences, listed by entry. Tags and fused reporters are not part of them.
UniProt Q09472: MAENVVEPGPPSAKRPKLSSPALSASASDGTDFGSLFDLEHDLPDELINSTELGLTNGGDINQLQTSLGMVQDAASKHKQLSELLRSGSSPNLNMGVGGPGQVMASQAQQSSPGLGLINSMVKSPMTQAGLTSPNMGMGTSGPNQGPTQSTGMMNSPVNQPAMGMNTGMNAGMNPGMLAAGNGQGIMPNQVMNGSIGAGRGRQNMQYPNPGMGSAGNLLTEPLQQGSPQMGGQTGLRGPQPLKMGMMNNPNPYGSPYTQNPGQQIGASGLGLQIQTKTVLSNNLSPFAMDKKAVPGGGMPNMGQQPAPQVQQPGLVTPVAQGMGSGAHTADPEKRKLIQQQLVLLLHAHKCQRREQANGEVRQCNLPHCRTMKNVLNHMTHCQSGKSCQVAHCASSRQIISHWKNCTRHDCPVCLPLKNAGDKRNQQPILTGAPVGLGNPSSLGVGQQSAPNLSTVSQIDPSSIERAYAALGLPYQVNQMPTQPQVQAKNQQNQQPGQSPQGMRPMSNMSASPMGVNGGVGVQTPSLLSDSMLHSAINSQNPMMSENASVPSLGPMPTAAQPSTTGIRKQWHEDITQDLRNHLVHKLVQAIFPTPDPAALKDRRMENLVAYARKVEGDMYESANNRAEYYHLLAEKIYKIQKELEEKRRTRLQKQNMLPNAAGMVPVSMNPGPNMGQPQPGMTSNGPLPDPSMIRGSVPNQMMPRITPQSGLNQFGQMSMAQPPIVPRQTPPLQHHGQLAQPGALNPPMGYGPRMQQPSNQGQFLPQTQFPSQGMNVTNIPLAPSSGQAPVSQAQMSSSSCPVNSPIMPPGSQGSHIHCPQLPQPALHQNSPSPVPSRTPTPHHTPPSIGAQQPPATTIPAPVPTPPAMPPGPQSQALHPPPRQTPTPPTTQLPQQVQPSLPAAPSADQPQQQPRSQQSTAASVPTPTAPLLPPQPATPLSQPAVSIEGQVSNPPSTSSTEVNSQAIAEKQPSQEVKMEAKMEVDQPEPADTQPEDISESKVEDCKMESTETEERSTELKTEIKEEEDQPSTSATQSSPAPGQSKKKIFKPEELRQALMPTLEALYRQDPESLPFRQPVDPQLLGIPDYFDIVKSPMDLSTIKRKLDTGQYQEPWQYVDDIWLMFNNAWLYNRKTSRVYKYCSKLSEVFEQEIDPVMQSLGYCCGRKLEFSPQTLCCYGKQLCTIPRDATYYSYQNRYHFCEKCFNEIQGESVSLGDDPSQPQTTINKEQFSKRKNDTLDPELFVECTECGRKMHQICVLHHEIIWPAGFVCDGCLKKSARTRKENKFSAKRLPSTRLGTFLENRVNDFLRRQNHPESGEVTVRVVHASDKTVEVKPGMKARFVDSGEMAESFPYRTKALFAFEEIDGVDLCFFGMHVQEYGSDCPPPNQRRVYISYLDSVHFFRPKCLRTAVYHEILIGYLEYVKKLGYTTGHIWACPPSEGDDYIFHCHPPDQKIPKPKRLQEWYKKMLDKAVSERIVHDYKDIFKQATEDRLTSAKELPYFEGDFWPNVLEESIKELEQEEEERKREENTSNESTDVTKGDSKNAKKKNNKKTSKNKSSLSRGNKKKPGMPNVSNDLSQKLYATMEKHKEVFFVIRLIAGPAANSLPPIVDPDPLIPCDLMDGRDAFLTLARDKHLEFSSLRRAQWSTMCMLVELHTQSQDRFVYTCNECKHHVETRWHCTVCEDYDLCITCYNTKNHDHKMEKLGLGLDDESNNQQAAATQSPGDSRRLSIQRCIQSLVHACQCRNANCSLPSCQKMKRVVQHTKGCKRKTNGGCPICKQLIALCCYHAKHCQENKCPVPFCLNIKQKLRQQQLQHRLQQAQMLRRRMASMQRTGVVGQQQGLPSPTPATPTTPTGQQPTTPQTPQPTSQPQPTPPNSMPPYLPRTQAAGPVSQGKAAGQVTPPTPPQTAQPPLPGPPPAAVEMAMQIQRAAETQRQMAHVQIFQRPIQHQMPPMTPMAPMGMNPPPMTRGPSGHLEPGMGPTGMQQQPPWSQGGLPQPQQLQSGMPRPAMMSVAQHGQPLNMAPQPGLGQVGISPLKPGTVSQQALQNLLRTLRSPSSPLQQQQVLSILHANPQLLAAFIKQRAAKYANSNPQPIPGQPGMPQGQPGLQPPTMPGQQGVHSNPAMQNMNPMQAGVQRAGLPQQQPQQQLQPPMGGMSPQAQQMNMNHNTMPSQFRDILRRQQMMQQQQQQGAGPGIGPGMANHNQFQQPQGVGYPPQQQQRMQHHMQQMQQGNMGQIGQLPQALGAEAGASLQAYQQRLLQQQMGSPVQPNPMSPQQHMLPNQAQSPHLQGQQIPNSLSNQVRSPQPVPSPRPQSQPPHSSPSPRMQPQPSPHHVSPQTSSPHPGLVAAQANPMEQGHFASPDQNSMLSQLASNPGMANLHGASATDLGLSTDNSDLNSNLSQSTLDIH
UniProt B2RWS6: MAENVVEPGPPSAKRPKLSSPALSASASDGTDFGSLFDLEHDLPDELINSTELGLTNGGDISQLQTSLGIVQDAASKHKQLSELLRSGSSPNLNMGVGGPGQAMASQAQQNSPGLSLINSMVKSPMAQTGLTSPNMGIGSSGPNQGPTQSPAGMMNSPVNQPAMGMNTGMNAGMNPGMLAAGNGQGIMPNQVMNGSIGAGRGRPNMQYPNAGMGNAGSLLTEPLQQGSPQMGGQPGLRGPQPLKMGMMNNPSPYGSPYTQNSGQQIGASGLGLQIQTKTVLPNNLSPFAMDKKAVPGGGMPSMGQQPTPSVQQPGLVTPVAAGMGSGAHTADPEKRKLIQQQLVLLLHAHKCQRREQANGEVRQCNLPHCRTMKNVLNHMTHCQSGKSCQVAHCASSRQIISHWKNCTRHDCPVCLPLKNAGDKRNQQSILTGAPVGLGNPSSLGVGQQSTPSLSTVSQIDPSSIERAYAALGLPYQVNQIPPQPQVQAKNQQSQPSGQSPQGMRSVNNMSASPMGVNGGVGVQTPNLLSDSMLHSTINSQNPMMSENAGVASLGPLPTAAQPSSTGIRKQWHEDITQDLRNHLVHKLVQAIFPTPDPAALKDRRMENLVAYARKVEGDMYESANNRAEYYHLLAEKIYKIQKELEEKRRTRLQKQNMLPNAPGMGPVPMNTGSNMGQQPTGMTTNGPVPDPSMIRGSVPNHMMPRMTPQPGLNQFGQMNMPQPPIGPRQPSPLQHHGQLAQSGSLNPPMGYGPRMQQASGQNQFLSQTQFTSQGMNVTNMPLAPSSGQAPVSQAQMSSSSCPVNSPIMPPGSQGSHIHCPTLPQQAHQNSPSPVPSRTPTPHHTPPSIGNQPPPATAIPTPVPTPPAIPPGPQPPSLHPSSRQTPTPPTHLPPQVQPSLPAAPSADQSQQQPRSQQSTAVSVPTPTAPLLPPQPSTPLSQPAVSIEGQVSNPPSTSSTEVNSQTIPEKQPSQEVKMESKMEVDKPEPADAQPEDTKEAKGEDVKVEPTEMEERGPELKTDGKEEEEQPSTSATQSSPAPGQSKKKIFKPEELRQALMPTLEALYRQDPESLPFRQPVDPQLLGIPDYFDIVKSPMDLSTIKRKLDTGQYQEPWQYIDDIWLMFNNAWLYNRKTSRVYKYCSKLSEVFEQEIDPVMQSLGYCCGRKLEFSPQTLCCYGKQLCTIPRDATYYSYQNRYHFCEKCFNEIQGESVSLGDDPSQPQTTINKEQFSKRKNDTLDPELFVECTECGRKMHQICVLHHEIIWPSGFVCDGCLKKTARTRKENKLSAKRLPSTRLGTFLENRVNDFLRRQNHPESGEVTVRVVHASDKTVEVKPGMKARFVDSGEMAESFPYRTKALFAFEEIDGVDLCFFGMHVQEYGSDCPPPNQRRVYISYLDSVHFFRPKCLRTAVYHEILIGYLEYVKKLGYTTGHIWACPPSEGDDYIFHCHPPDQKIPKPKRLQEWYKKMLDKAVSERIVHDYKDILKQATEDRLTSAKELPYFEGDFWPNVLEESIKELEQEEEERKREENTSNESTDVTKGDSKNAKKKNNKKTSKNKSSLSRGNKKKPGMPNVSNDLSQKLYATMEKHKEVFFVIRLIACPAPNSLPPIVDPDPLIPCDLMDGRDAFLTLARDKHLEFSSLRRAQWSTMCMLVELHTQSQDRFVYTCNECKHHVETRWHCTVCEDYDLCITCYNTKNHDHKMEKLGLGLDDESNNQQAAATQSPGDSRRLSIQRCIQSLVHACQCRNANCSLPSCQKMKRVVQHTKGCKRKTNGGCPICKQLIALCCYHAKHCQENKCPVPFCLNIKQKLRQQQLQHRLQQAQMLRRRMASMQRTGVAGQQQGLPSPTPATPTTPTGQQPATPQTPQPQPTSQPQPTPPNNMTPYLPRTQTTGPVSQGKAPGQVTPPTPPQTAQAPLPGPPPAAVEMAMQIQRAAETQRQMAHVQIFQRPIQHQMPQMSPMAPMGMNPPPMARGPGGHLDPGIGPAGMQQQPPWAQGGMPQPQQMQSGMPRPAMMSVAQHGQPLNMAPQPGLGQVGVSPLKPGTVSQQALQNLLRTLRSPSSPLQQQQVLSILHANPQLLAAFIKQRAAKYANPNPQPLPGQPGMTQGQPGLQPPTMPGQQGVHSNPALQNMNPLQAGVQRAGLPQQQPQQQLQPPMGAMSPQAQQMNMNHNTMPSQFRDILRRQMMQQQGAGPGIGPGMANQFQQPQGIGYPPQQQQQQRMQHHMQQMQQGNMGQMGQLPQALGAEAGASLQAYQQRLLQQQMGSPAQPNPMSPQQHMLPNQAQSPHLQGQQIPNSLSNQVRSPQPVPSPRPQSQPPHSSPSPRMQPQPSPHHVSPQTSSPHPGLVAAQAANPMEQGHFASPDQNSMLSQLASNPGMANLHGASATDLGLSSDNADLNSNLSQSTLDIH

B1: PPP6C, Flag-tagged, in vitro translated (enzyme, UniProt O00743 1-305)
chain: MAPLDLDKYVEIARLCKYLPENDLKRLCDYVCDLLLEESNVQPVSTPVTVCGDIHGQFYDLCELFRTGGQVPDTNYIFMGDFVDRGYYSLETFTYLLALKAKWPDRITLLRGNHESRQITQVYGFYDECQTKYGNANAWRYCTKVFDMLTVAALIDEQILCVHGGLSPDIKTLDQIRTIERNQEIPHKGAFCDLVWSDPEDVDTWAISPRGAGWLFGAKVTNEFVHINNLKLICRAHQLVHEGYKFMFDEKLVTVWSAPNYCYRCGNIASIMVFKDVNTREPKLFRAVPDSERVIPPRTTTPYFL
B2: PPM1D, Flag-tagged, in vitro translated (enzyme, UniProt O15297 1-605)
chain: MAGLYSLGVSVFSDQGGRKYMEDVTQIVVEPEPTAEEKPSPRRSLSQPLPPRPSPAALPGGEVSGKGPAVAAREARDPLPDAGASPAPSRCCRRRSSVAFFAVCDGHGGREAAQFAREHLWGFIKKQKGFTSSEPAKVCAAIRKGFLACHLAMWKKLAEWPKTMTGLPSTSGTTASVVIIRGMKMYVAHVGDSGVVLGIQDDPKDDFVRAVEVTQDHKPELPKERERIEGLGGSVMNKSGVNRVVWKRPRLTHNGPVRRSTVIDQIPFLAVARALGDLWSYDFFSGEFVVSPEPDTSVHTLDPQKHKYIILGSDGLWNMIPPQDAISMCQDQEEKKYLMGEHGQSCAKMLVNRALGRWRQRMLRADNTSAIVICISPEVDNQGNFTNEDELYLNLTDSPSYNSQETCVMTPSPCSTPPVKSLEEDPWPRVNSKDHIPALVRSNAFSENFLEVSAEIARENVQGVVIPSKDPEPLEENCAKALTLRIHDSLNNSLPIGLVPTNSTNTVMDQKNLKMSTPGQMKAQEIERTPPTNFKRTLEESNSGPLMKKHRRNGLSRSSGAQPASLPTTSQRKNSVKLTMRRRLRGQKKIGNPLLHQHRKTVCVC
B3: PPM1M, Flag-tagged, in vitro translated (enzyme, UniProt Q96MI6 1-459)
chain: MSAGWFRRRFLPGEPLPAPRPPGPHASPVPYRRPRFLRGSSSSPGAADASRRPDSRPVRSPARGRTLPWNAGYAEIINAEKSEFNEDQAACGKLCIRRCEFGAEEEWLTLCPEEFLTGHYWALFDGHGGPAAAILAANTLHSCLRRQLEAVVEGLVATQPPMHLNGRCICPSDPQFVEEKGIRAEDLVIGALESAFQECDEVIGRELEASGQMGGCTALVAVSLQGKLYMANAGDSRAILVRRDEIRPLSFEFTPETERQRIQQLAFVYPELLAGEFTRLEFPRRLKGDDLGQKVLFRDHHMSGWSYKRVEKSDLKYPLIHGQGRQARLLGTLAVSRGLGDHQLRVLDTNIQLKPFLLSVPQVTVLDVDQLELQEDDVVVMATDGLWDVLSNEQVAWLVRSFLPGNQEDPHRFSKLAQMLIHSTQGKEDSLTEEGQVSYDDVSVFVIPLHSQGQESSDH
B4: PPM1K, Flag-tagged, in vitro translated (enzyme, UniProt Q8N3J5 1-372)
chain: MSTAALITLVRSGGNQVRRRVLLSSRLLQDDRRVTPTCHSSTSEPRCSRFDPDGSGSPATWDNFGIWDNRIDEPILLPPSIKYGKPIPKISLENVGCASQIGKRKENEDRFDFAQLTDEVLYFAVYDGHGGPAAADFCHTHMEKCIMDLLPKEKNLETLLTLAFLEIDKAFSSHARLSADATLLTSGTTATVALLRDGIELVVASVGDSRAILCRKGKPMKLTIDHTPERKDEKERIKKCGGFVAWNSLGQPHVNGRLAMTRSIGDLDLKTSGVIAEPETKRIKLHHADDSFLVLTTDGINFMVNSQEICDFVNQCHDPNEAAHAVTEQAIQYGTEDNSTAVVVPFGAWGKYKNSEINFSFSRSFASSGRWA
B5: PPEF1, Flag-tagged, in vitro translated (enzyme, UniProt O14829 1-653)
chain: MGCSSSSTKTRRSDTSLRAALIIQNWYRGYKARLKARQHYALTIFQSIEYADEQGQMQLSTFFSFMLENYTHIHKEELELRNQSLESEQDMRDRWDYVDSIDVPDSYNGPRLQFPLTCTDIDLLLEAFKEQQILHAHYVLEVLFETKKVLKQMPNFTHIQTSPSKEVTICGDLHGKLDDLFLIFYKNGLPSERNPYVFNGDFVDRGKNSIEILMILCVSFLVYPNDLHLNRGNHEDFMMNLRYGFTKEILHKYKLHGKRILQILEEFYAWLPIGTIVDNEILVIHGGISETTDLNLLHRVERNKMKSVLIPPTETNRDHDTDSKHNKVGVTFNAHGRIKTNGSPTEHLTEHEWEQIIDILWSDPRGKNGCFPNTCRGGGCYFGPDVTSKILNKYQLKMLIRSHECKPEGYEICHDGKVVTIFSASNYYEEGSNRGAYIKLCSGTTPRFFQYQVTKATCFQPLRQRVDTMENSAIKILRERVISRKSDLTRAFQLQDHRKSGKLSVSQWAFCMENILGLNLPWRSLSSNLVNIDQNGNVEYMSSFQNIRIEKPVQEAHSTLVETLYRYRSDLEIIFNAIDTDHSGLISVEEFRAMWKLFSSHYNVHIDDSQVNKLANIMDLNKDGSIDFNEFLKAFYVVHRYEDLMKPDVTNLG
B6: Flag-tagged PPM1K, overexpressed in HK2 cells (enzyme, UniProt Q8N3J5 30-372)
chain: DDRRVTPTCHSSTSEPRCSRFDPDGSGSPATWDNFGIWDNRIDEPILLPPSIKYGKPIPKISLENVGCASQIGKRKENEDRFDFAQLTDEVLYFAVYDGHGGPAAADFCHTHMEKCIMDLLPKEKNLETLLTLAFLEIDKAFSSHARLSADATLLTSGTTATVALLRDGIELVVASVGDSRAILCRKGKPMKLTIDHTPERKDEKERIKKCGGFVAWNSLGQPHVNGRLAMTRSIGDLDLKTSGVIAEPETKRIKLHHADDSFLVLTTDGINFMVNSQEICDFVNQCHDPNEAAHAVTEQAIQYGTEDNSTAVVVPFGAWGKYKNSEINFSFSRSFASSGRWA
B7: PPM1K, endogenous in mouse kidney tissue (enzyme, UniProt Q8BXN7 30-372)
chain: DHRQATPACYFSTSEARCSRFDPDGSGQPATWDNFGIWDNRIDEPILLPPSIKYGKPIPKISLENVGCASLIGKRKENEDRFGFAQLTEEVLYFAVYDGHGGPAAADFCHTHMEKCVMDLLPREKDLETVLTLAFLEIDKAFASYAHLSADASLLTSGTTATVALLRDGVELVVASVGDSRALLCRKGKPMKLTTDHTPERKDEKERIKKFGGFVAWNSLGQPHVNGRLAMTRSIGDLDLKASGVIAEPETTRIKLYHADDSFLVLTTDGINFMVNSQEICDFVNQCHDPKEAAHSVTEQAIQYGTEDNSTAVVVPFGAWGKYKNSEITFSFSRSFASSGRWA
B8: PPM1K in HK2 cells (proximity ligation assay) (enzyme, UniProt Q8N3J5 30-372)
chain: B6 chain

Legend:
[1] = biological target: p300 (histone acetyltransferase EP300), HA-tagged, in vitro translated (UniProt Q09472); experiment: co-IP; screen of multiple phosphatases against p300 by in vitro transcription/translation (TNT T7 kit) and immunoprecipitation
[2] = biological target: HA-tagged p300, overexpressed in HK2 cells (UniProt Q09472); experiment: co-IP; HK2 cells overexpressing HA-tagged p300 and Flag-tagged PPM1K, with or without TGFβ; lysates (0.2% Triton X-100, 150 mM NaCl, 50 mM Tris HCl pH 7.4) rotated with HA-magnetic beads 24 h at 4 °C
[3] = biological target: p300, endogenous in mouse kidney tissue (mouse (endogenous in kidney tissue)) (UniProt B2RWS6); experiment: proximity ligation; Duolink PLA with anti-p300 and anti-PPM1K antibodies on paraffin-embedded mouse kidney tissue, sham versus UUO
[4] = biological target: p300 in HK2 cells (proximity ligation assay) (human (endogenous in HK2)) (UniProt Q09472); experiment: proximity ligation; Duolink PLA with anti-p300 and anti-PPM1K antibodies on fixed, permeabilised HK2 cells, with or without TGFβ

| Binder | binding [1] | further results |
| --- | --- | --- |
| B1 | binds | – |
| B2 | binds | – |
| B3 | binds | – |
| B4 | binds | – |
| B5 | binds | – |
| B6 | – | binding [2]: binds |
| B7 | – | binding [3]: binds |
| B8 | – | binding [4]: binds |
